Reference: the supplement of paper PMC5949888
± gives the standard deviation of the averaged measurements. Most values lie at the floor of the assay. Slopes are relative: functional sequences can read slightly below zero.

Each substance was assayed on Saccharomyces cerevisiae PS128 hsf1 delta, HSF1(1-493) fusion (assay: growth estimate (transactivation domain function in HSF1 fusion, heat-shock survival) (a.u. (slope of normalised read count over time)); higher = stronger growth at 37°C, i.e. more transactivation activity). Settings: library: random library.

Row | Substance | growth estimate
1 | DTR | < -0.25
2 | VHR | -0.247 ± 0.0037
3 | SGRHV | < -0.25
4 | LGSYGSAGGNATIPTRECLP | < -0.25
5 | YDCHFRSTCEPVAKVYRRRD | < -0.25
6 | RRAIVKAHVASRVLGKHHPG | < -0.25
7 | RLF | < -0.25
8 | GVLNRCLDGPESDDP | < -0.25
9 | AMDMRSTIYNLILTVASCKC | < -0.25
10 | NHTRGL | < -0.25
11 | TRGRL | < -0.25
12 | TVSSSEEIGLT | < -0.25
13 | KPVDSVRHSPRGPAKVWT | < -0.25
14 | LWKVGYSPR | < -0.25
15 | RMNRASCIN | -0.205
16 | LPRGAWALS | < -0.25
17 | LEAVVGLDVQRDFKTNRLPT | -0.243
18 | GTYR | < -0.25
19 | VHRQLLHFGMIRPGFPSQYR | < -0.25
20 | TCQPADKITG | < -0.25
21 | SSGASKGLK | < -0.25
22 | PGSHSQTMGRD | < -0.25
23 | LGTG | -0.231
24 | PNESRRYRVRPAELPIFMIL | < -0.25

In another format: results already given.
Row	Substance	growth estimate
4	LGSYGSAGGNATIPTRECLP	< -0.25
7	RLF	< -0.25
16	LPRGAWALS	< -0.25
17	LEAVVGLDVQRDFKTNRLPT	-0.243

Next results.

Row | Substance | growth estimate
25 | GGTASLGIRIRLCIPHHWTM | < -0.25
26 | WHMPALTLRPGIT | < -0.25
27 | RGRIKTTGIPNMYAYVSLGR | 0.471
28 | IPVYVYIAGWSRIRYDIPSG | < -0.25
29 | TYLVVLVQV | < -0.25
30 | CLANGAVARVFRIFVQCERQ | < -0.25
31 | ALKA | -0.243
32 | FIGW | < -0.25
33 | PKPNNRPSPVIVWRGFLE | -0.243
34 | GFMFLTYRQMSYVYEPA | < -0.25
35 | NGVKESGLRGKLDLPQRRTM | -0.176
36 | HFDKFPHSEA | < -0.25
37 | IGLSVLAE | < -0.25
38 | RLLLLLRPERGSLGVM | < -0.25
39 | PGRRPFAERWVMR | < -0.25
40 | ANIVSDSLVSSSPSNTILSD | < -0.25
41 | CSRGYRCDGVK | < -0.25
42 | KWGHHANNNPRPDPDRAKCL | < -0.25
43 | LYLTLRTQKPFISAEARSAG | < -0.25
44 | NVTSKVVSFRTVIKFSRSVT | < -0.25
45 | SEIRSLHVEF | < -0.25
46 | RRSWSCQSIA | -0.246
47 | PSLVCIQGM | < -0.25
48 | LNKEGYTLPHPS | -0.243

Row | Substance | growth estimate
49 | ADLQKRCMDAIVLYRGRFAW | -0.246
50 | ELW | < -0.25
51 | TVIYTKHPVRLPQDSGGPES | < -0.25
52 | HSRGAVQALPDLPRQGRNGG | < -0.25
53 | SVILSKSVCPRHRREYSGVL | < -0.25
54 | WGTVSGVMASKARFIVHRPR | < -0.25
55 | HCTRVRIGAVFQSTRGKYWK | < -0.25
56 | ILRLRMTKFE | < -0.25
57 | NPRCNRAVWPGVAEVGITLP | < -0.25
58 | MPVILRRKLGRSRI | < -0.25
59 | YSCN | < -0.25
60 | LSALFCLCQYR | < -0.25
61 | CGDQKGVIA | < -0.25
62 | IVF | < -0.25
63 | EGTRGVRSV | < -0.25
64 | PLCPSVGKAFFVVRS | < -0.25
65 | GHHLYQGCDRSTVQISILDK | < -0.25
66 | CDVCHGGDLWRCYSKVLSGT | < -0.25
67 | RLGASFSEVA | < -0.25
68 | TFITFKE | < -0.25
69 | LPLHVSLAGCKEVRLV | < -0.25
70 | GPYRWLLDRVRDPDHSTRAF | < -0.25
71 | ICRA | < -0.25
72 | YDGGQSGLIKAEANDTGLHY | < -0.25

Row | Substance | growth estimate
73 | ASYATCRGPG | < -0.25
74 | GDMDLRKAS | < -0.25
75 | RDE | < -0.25
76 | KETVRLNPVVQRWTLYRLDS | < -0.25
77 | EQSCPK | < -0.25
78 | DSTFLLPIRPLGVVTLVRIT | < -0.25
79 | SAYIVDHLRVWNSA | < -0.25
80 | VGTCSGQKLKTSRVYGTKLS | < -0.25
81 | RRYVRRGRVCTLK | < -0.25
82 | GHNLVT | < -0.25
83 | MKYWRIISLGENQAGVVFSA | < -0.25
84 | SVRR | < -0.25
85 | INRSLDLGLFVVETLLWQGT | < -0.25
86 | VKNDFRNETTQTIKVWPT | < -0.25
87 | GGYQGNDICTGRNR | < -0.25
88 | FWYWEDGASGWVYYSIR | < -0.25
89 | ILTSFDDIIECSRQFLPQGA | -0.231
90 | FRGHSVNWRERDDGWN | < -0.25
91 | TSDWWERVRSRYSNP | < -0.25
92 | LTGIASRYDP | < -0.25
93 | CGSSNVHLIGSGDCTICGNC | < -0.25
94 | IRTYTCVKRRTPTSPSAR | < -0.25
95 | LELELKVLTGSRSCAFRLGL | < -0.25
96 | RGTGPNIGFVVL | < -0.25

Five entries drawn at random from the list so far:
Row | Substance | growth estimate
47 | PSLVCIQGM | < -0.25
40 | ANIVSDSLVSSSPSNTILSD | < -0.25
50 | ELW | < -0.25
7 | RLF | < -0.25
31 | ALKA | -0.243

Next part.

Row | Substance | growth estimate
97 | HYIFPGAVNEYRGRECCFPG | < -0.25
98 | CGRKVSRINVVSR | < -0.25
99 | IRFHAPSGRAVHSELHCNPS | < -0.25
100 | ESGHAGGPVVPGPTRRFLWG | < -0.25
101 | KCSVTGFTRIWPPNTLLVRV | < -0.25
102 | LFSFL | -0.212
103 | VYTTP | < -0.25
104 | WHTTWRAHDR | < -0.25
105 | NKPIKPSTAPRG | < -0.25
106 | VMGLEVIWRP | < -0.25
107 | STFYGH | < -0.25
108 | EHESPLEPS | < -0.25
109 | VRPRQSTGIRGCGRPSFSVL | < -0.25
110 | PHREESSLGET | < -0.25
111 | SRIR | < -0.25
112 | LDKTDE | < -0.25
113 | ELCSSMATATSILQSGSLSG | < -0.25
114 | YAYFGLTPATKETFRISEIN | < -0.25
115 | MGLSRVGNYDT | < -0.25
116 | GRATLSIPCKSE | < -0.25
117 | TAGP | < -0.25
118 | SERRTKACMDRPFCLPMLCA | < -0.25
119 | GTLGPTPV | < -0.25
120 | LARY | < -0.25

Row | Substance | growth estimate
121 | YHGEIL | < -0.25
122 | LGQLDTLRWTRWRGISDERI | < -0.25
123 | QLGS | < -0.25
124 | RIG | < -0.25
125 | HCKED | < -0.25
126 | ERYISKC | < -0.25
127 | EVGRMLAGRQVSSLQAGGCA | < -0.25
128 | TSRDRIFGPSITFNR | < -0.25
129 | LEYR | < -0.25
130 | DDEGLSGRKVEPVE | < -0.25
131 | AAVSRNRQRGLVCTLTS | -0.245
132 | CGGQGRVPRGINWIIVLN | < -0.25
133 | GRVT | < -0.25
134 | QGANAA | < -0.25
135 | HTPPR | < -0.25
136 | RLYQMVRNQYIIRAFLLLLP | < -0.25
137 | RDSIVP | < -0.25
138 | WNG | < -0.25
139 | RFREGLDLRNLCRPRLLSRN | < -0.25
140 | SHWSYSGWC | < -0.25
141 | RDI | < -0.25
142 | RPGARNQCGHFAATEETMGS | < -0.25
143 | DTKALLVQSGCKIETAR | < -0.25
144 | PDTPGAPLDPW | < -0.25

Row | Substance | growth estimate
145 | HGVPAGRAWHGTYVRIWLLD | < -0.25
146 | GGHPE | < -0.25
147 | TLIWPRKFGFLLFCVFGIWC | < -0.25
148 | ELHIFFAPLGNNRMQGQNLA | < -0.25
149 | SKEQSKHVCQLGVSSELE | < -0.25
150 | PQNWDTALGLDEGVGYGQGQ | -0.245
151 | GINEPLIKEKC | < -0.25
152 | PHEYCGVNMER | < -0.25
153 | VFSSGTRSITAATRFFDSFA | < -0.25
154 | CGGEISCRKAASSRMILTVR | < -0.25
155 | DFVGL | < -0.25
156 | RTDPRAHSLPKDGGGNNQCL | < -0.25
157 | MCAYGLTRRTSVEVRSVSPA | < -0.25
158 | ACY | < -0.25
159 | CHLSTRWMRHDMVRTSICVT | < -0.25
160 | SSHAKQDSTEDSTGGVLAIL | < -0.25
161 | YGHE | < -0.25
162 | SCISRHPSYRSRHRRAFVSP | < -0.25
163 | NEGRPTRY | < -0.25
